No constants are given. Whether binding was seen depends on the method and setting. Some entries that bind do so weakly or less than the wild type. Where a sequence is shown, tags or fusion partners need not be part of it.
Tests used:
[1] = biological target: T1, Biotinylated CRF (corticotropin-releasing factor) (UniProt P06850); assay: ELISA (FIG. 7)
T1 sequence (peptide, biotinylated (site not stated), looked up): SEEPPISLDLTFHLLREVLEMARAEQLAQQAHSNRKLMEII

[2] = biological target: T1, Biotinylated CRF (corticotropin-releasing factor); assay: ELISA, biotinylated CRF on avidin-coated plate, detection with HRP-conjugated anti-hIgG or protein-A
[3] = biological target: T1, Biotinylated CRF (corticotropin-releasing factor); assay: ELISA, biotinylated CRF on avidin-coated plate, detection with HRP-anti-hIgG or HRP-protein-A
[4] = biological target: T1, Biotinylated CRF (corticotropin-releasing factor); assay: ELISA: biotinylated CRF (bCRF) immobilized on avidin-coated plate, bound CRFBP-Fc detected with HRP-anti-hIgG or HRP-protein A

Measured: binding

B1: CRFBP-Fc fusion protein composed of CRF-BP(25-322) fused to human IgG2 Fc (SEQ ID NO:23) (Fc fusion)
chain: YLELREAADYDPFLLFSANLKRELAGEQPYRRALRCLDMLSLQGQFTFTADRPQLHCAAFFISEPEEFITIHYDQVSIDCQGGDFLKVFDGWILKGEKFPSSQDHPLPSAERYIDFCESGLSRRSIRSSQNVAMIFFRVHEPGNGFTLTIKTDPNLFPCNVISQTPNGKFTLVVPHQHRNCSFSIIYPVVIKISDLTLGHVNGLQLKKSSAGCEGIGDFVELLGGTGLDPSKMTPLADLCYPFHGPAQMKVGCDNTVVRMVSSGKHVNRVTFEYRQLEPYELENPNGNSIGEFCLSGLGSGGGGSGGGGSGGGGSGGGGSGGGGSGGGGSRSVECPPCPAPPVAGPSVFLFPPKPKDTLMISRTPEVTCVVVDVSHEDPEVQFNWYVDGVEVHNAKTKPREEQFNSTFRVVSVLTVVHQDWLNGKEYKCKVSNKGLPAPIEKTISKTKGQPREPQVYTLPPSREEMTKNQVSLTCLVKGFYPSDIAVEWESNGQPENNYKTTPPMLDSDGSFFLYSKLTVDKSRWQQGNVFSCSVMHEALHNHYTQKSLSLSPGK
binds: all assays above

— patent publication US20190382462A1, “METHODS AND COMPOSITIONS FOR TREATING HPA HYPERACTIVITY” (priority 2017, published 2019)
